# Measurements published in PubChem BioAssay AID445 (National Center for Advancing Translational Sciences (NCATS), 2006).
# The list shows a part of the results. Further columns of the screen follow, without active or inactive calls. Compounds called inactive in the main read-out are mostly missing here. Potencies come from curve fits of mixed quality, noted in brackets.
# Experiment: IkB Signaling
# Details: ABC-DLBCL IkBa-CBG/CBR dual luciferase ratio (green luciferase fused to IkBa over red control in OCI-Ly3 lymphoma cells), 4 h; measured here: control luc red channel unless noted
# In short: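 Curves were fitted separately to fusion (green), unfused (red) and ratio luminescence, then classed by r2, magnitude and activity. Cells: OCI-Ly3, 4 h compound plus doxycycline at 37C; 10 uM MG-132 defined full response.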
row,SMILES,AC50
1,Cc1ccc2nc(COc3ccccc3NC(=O)c3ccccc3C)cc(=O)n2c1,"6.31 µM [falling, partial curve]"
2,COc1ccc(-c2nnc(SCC(=O)Nc3cc(OC)ccc3OC)nc2-c2ccc(OC)cc2)cc1,"39.8 µM [falling, single point]"
3,COc1ccccc1CN(Cc1cc2cc(C)ccc2[nH]c1=O)Cc1nnnn1Cc1ccco1,"1 µM [falling, full curve]"
4,Cc1cccc(CCNC(=O)c2ccc3c(c2)nc2n3CCC(C)C2)c1 (stereo unspecified),"0.316 µM [falling, single point]"
5,COc1ccc(OC)c(NC(=O)c2ccc3c(SCC(=O)O)c4c(nc3c2)CCCC4)c1,"15.8 µM [falling, single point]"
6,Cc1cccc(-c2noc(-c3ccc(NCc4ccco4)c([N+](=O)[O-])c3)n2)c1,"7.94 µM [falling, full curve]"
7,CCCCCCCCCCCCCCCC(=O)NC[C@@H](COP(=O)([O-])OCC[N+](C)(C)C)OCC,"6.31 µM [falling, partial curve, poor fit] [measured here: IkB-luc green channel]"
8,COc1cc(SC)ccc1C(=O)Nc1ccc2c(c1)OCCO2,"25.1 µM [falling, partial curve]"
9,COc1ccc(-n2c(/C=C/c3cccc(C(F)(F)F)c3)nc3ccccc3c2=O)cc1Cl,"39.8 µM [falling, partial curve]"
10,Cn1cc(S(=O)(=O)N2CCCCCC2)cc1C(=O)N1CCN(c2cccc(C(F)(F)F)c2)CC1,"12.6 µM [falling, partial curve, poor fit]"
11,N#Cc1ccccc1NC(=O)C(=O)NCCc1csc(-c2ccc(C(F)(F)F)cc2)n1,"2.51 µM [rising, partial curve]"
12,CN(C)c1ccc(NC(=O)c2ccc(COc3cccc(Cl)c3)o2)cc1,"15.8 µM [falling, partial curve]"
13,O=C1CSC2(C(=O)N(Cc3ccccc3)c3ccccc32)N1c1cccc(F)c1 (stereo unspecified),"39.8 µM [falling, single point]"
14,CCc1ccc(NC(=O)COC(=O)CCCC2=NS(=O)(=O)c3ccccc3N2)cc1,"2.51 µM [rising, full curve]"
15,Cc1cc(C)c(NC(=O)CSc2nc3ccccc3c3nc(CCn4cncc4C)nn23)c(C)c1,"0.00631 µM [rising, full curve, poor fit]"
16,Cn1c(C(=O)N2CCN(c3nc4ccccc4s3)CC2)cc2sccc21,"39.8 µM [rising, single point] [measured here: IkB-luc green channel]"
17,CCN(CC)CCCNc1cc(-c2ccccc2)nc(C)n1,"20 µM [falling, single point]"
18,CCOc1ccc2nc(N3CCN(C(=O)c4ccc(S(=O)(=O)CC)cc4)CC3)sc2c1,"39.8 µM [falling, single point]"
19,Cc1ccc(/C=C/C(=O)Nc2nc(-c3cccs3)ns2)cc1,"0.251 µM [rising, full curve, poor fit]"
20,COc1ccc(-n2cc(C(=O)N(CCN(C)C)Cc3ccccc3)c3ccccc3c2=O)cc1,"15.8 µM [falling, partial curve]"
21,C=C(CC)C(=O)c1ccc(OCC(=O)O)c(Cl)c1Cl,"12.6 µM [falling, partial curve]"

# Four records picked at random from the list so far:
row,SMILES,AC50
16,Cn1c(C(=O)N2CCN(c3nc4ccccc4s3)CC2)cc2sccc21,"39.8 µM [rising, single point] [measured here: IkB-luc green channel]"
5,COc1ccc(OC)c(NC(=O)c2ccc3c(SCC(=O)O)c4c(nc3c2)CCCC4)c1,"15.8 µM [falling, single point]"
18,CCOc1ccc2nc(N3CCN(C(=O)c4ccc(S(=O)(=O)CC)cc4)CC3)sc2c1,"39.8 µM [falling, single point]"
10,Cn1cc(S(=O)(=O)N2CCCCCC2)cc1C(=O)N1CCN(c2cccc(C(F)(F)F)c2)CC1,"12.6 µM [falling, partial curve, poor fit]"

# (cont.)

row,SMILES,AC50
1,COc1cc(C(=O)N(Cc2ccc(F)cc2)Cc2ccco2)cc(OC)c1OC,"39.8 µM [falling, single point]"
2,COc1cc(OC)cc(C(=O)Nc2cc(-c3nc4ccccc4[nH]3)ccc2C)c1,"25.1 µM [falling, single point]"
3,O=C(/C=C/c1ccco1)Nc1ccc(F)cc1,"20 µM [falling, partial curve]"
4,COC(=O)c1c(SC)nc2ccccc2c1OCc1ccc(Br)cc1,"10 µM [falling, partial curve]"
5,O=c1c2sccc2n(Cc2cc(=O)n3ccccc3n2)c(=O)n1-c1cc(F)ccc1F,"15.8 µM [rising, single point]"
6,CC1=C(C(=O)Nc2cc(Cl)ccc2C)C2(CCCCC2)OC1=O,"20 µM [falling, partial curve, poor fit]"
7,Cc1cc(C)cc(NC(=O)CCc2nnc3n(C)c(=O)c4sccc4n23)c1,"10 µM [falling, partial curve]"
8,Cc1cc(C)n2nc(CNC(=O)c3ccccc3Cl)nc2n1,"12.6 µM [falling, single point]"
9,COC(=O)c1c(-c2ccco2)csc1NC(=O)C1CC=CCC1C(=O)O (stereo unspecified),"20 µM [falling, partial curve]"
10,COc1ccc2c(C)c(CCC(=O)NCc3ccc(C)cc3)c(=O)oc2c1,"20 µM [falling, partial curve]"
11,CCC(CC)C(=O)OCc1cc(=O)n2nc(C3CCCCC3)sc2n1,"25.1 µM [falling, partial curve]"
12,Cc1ccc(-c2c(C(=O)N3CCN(c4cccc(C)c4)C(C)C3)oc(=O)c3ccccc23)cc1 (stereo unspecified),"3.16 µM [falling, full curve]"
13,COC(=O)C1=C(C)N=C2SCCC(=O)N2C1c1ccc(OCc2ccccc2)c(OC)c1 (stereo unspecified),"25.1 µM [falling, single point]"
14,CC(C)(C)OC(=O)N1CCC(c2c(C(=O)NCCc3ccsc3)cnn2-c2ccccc2Cl)CC1,"39.8 µM [falling, partial curve, poor fit]"
15,CCOc1ccc(N2C(=O)CS(=O)(=O)C23C(=O)N(Cc2cccc(Cl)c2)c2ccccc23)cc1 (stereo unspecified),"7.94 µM [falling, partial curve]"
16,CCc1c(C)nc2nncn2c1Nc1ccc(Cl)cc1,"5.01 µM [falling, full curve]"
17,COc1ccc(-n2c(=O)c3c4c(sc3n(Cc3ccc(C)cc3C)c2=O)CCC4)c(OC)c1,"12.6 µM [falling, partial curve, poor fit]"
18,CCC(C(=O)Nc1ccc(C(C)=O)cc1)n1cnc2nc3c(cc2c1=O)CCCC3 (stereo unspecified),"0.0398 µM [rising, full curve, poor fit]"
19,COc1ccc(OC)c(CNC(=O)Cn2ncc3c([nH]c4ccc(C)cc43)c2=O)c1,"0.631 µM [rising, full curve]"
20,O=C(NCCC1=CCCCC1)C1CCN(Cc2cnn(-c3ccccc3)c2-n2cccc2)CC1,"20 µM [falling, partial curve]"
21,CCCCCCCCCCCCCCCC(=O)O[C@H](CC(=O)O)C[N+](C)(C)C,"25.1 µM [rising, partial curve]"

row,SMILES,AC50
1,COc1ccc(N2CC(NC(=O)COc3ccc(F)cc3)CC2=O)cc1OC (stereo unspecified),"0.2 µM [falling, full curve, poor fit]"
2,CCOC(=O)C(=O)NCC(c1cccnc1)N1CCN(c2ccccc2)CC1 (stereo unspecified),"25.1 µM [falling, single point]"
3,CCC1CN(C(=O)NCc2ccccc2)c2cc(Cl)ccc2O1 (stereo unspecified),"15.8 µM [falling, partial curve]"
4,Cc1ccc(-c2nc3c(c(SCC(=O)N(C)c4ccccc4)n2)Cc2c(CO)cnc(C)c2O3)cc1,"5.01 µM [rising, partial curve]"
5,COc1ccc(S(=O)(=O)NCCc2nnc3ccc(SCC(=O)Nc4cc(C)cc(C)c4)nn23)cc1,"25.1 µM [falling, single point]"
6,Cn1c(=O)n(C)c2cc(N3CCOCC3)c(NC(=O)c3ccc(Cl)cc3)cc21,"3.16 µM [rising, partial curve, poor fit]"
7,O=C(NCc1ccc2c(c1)CCN2C(=O)c1ccncc1)c1ccccc1Cl,"25.1 µM [falling, partial curve]"
8,Cc1ccc(Cl)cc1N1CCN(C(=O)c2ccc(NS(=O)(=O)c3c(C)noc3C)cc2)CC1,"12.6 µM [falling, partial curve]"
9,COc1ccccc1CCNC(=O)C(=O)NCC(c1ccco1)S(=O)(=O)c1ccc(F)cc1 (stereo unspecified),"25.1 µM [falling, single point]"
10,COc1ccc(OC)c(CCNC(=O)c2cc3cccc4c3n2CC(C)S4)c1 (stereo unspecified),"20 µM [falling, partial curve]"
11,COc1cccc(N2CCN(C(=O)C3CCCN(S(=O)(=O)c4ccc5c(c4)oc(=O)n5C)C3)CC2)c1 (stereo unspecified),"20 µM [falling, partial curve, poor fit]"
12,Cc1nc2ccc(C(=O)O)cc2c2c1CC(C)S2 (stereo unspecified),"1.26 µM [falling, full curve] [measured here: IkB-luc green channel]"
13,COc1cccc(CC(=O)Nc2ccc(-c3nc4ccccc4s3)cc2Cl)c1,"6.31 µM [rising, single point]"
14,Cc1ccnc(NS(=O)(=O)c2ccc(NC(=O)C3CCCCC3)cc2)n1,"6.31 µM [falling, partial curve]"
15,Cc1ccc2nc(-c3ccc(F)cc3)c(NC(C)(C)CC(C)(C)C)n2c1,"10 µM [falling, partial curve]"
16,CC(C)NC(=O)c1ccc2c(c1)N(Cc1cccc(Cl)c1)C(=O)c1ccccc1S2=O (stereo unspecified),"0.01 µM [rising, full curve]"
17,COc1ccc(NC(=O)CN2CCN(Cc3ccccc3Cl)S2(=O)=O)cc1Cl,"20 µM [falling, partial curve]"
18,CCCN1C(=O)C(O)(CC(=O)c2ccc(C(C)C)cc2)c2ccccc21 (stereo unspecified),"39.8 µM [falling, single point]"
19,CN1CCN(Cc2c(O)ccc3cc(-c4ccc(Cl)cc4)c(=O)oc23)CC1,"6.31 µM [falling, partial curve, poor fit]"
